PubChem BioAssay AID743454, Peter MacCallum Cancer Centre | 2014

- Test: 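Knock-downs lowering viability or raising caspase 3/7 activity in vorinostat-treated resistant cells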 (primary screen)
- System: human HCT116-VR colon cancer cells, selected for vorinostat resistance
- Reagent: siRNA pool against human genes, 40 nM siRNA pool
- Duration: vorinostat for 24 h, read-out about 72 h after transfection
- Treatment: vorinostat at 2.5 µM final
- Measured: 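Two measures, CellTiter-Fluor viability and luminescent caspase 3/7 activity, each as fold change against same-plate mock wells, mean of duplicates, then screen-wide robust z-score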
- Direction: viability robust z-score: higher = more viable cells than screen typical; caspase robust z-score: higher = more caspase 3/7 activity than screen typical
- Call rule: 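a knock-down is a hit when classed RV1 or RV2 for lowered viability, or CA1 or CA2 for caspase activation; those lethal without drug were dropped; hits were retested singly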
Here is a random part of about 18,000 reagents tested. Of all reagents, 450 (2.5%) were called active. 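Single biological run; no consistent viability z cut-off exists, so the class columns, not z-scores, define the calls.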

With knock-down of TRIM49, the screen gave viability hit class no change; caspase hit class no change; viability robust z-score -0.06; caspase robust z-score 0.52; inactive.
Silencing of DACH2 resulted in: viability hit class no change; caspase hit class no change; viability robust z-score -0.48; caspase robust z-score -0.26; inactive.
With knock-down of NFE2L1 the results were viability hit class no change; caspase hit class no change; viability robust z-score 0.76; caspase robust z-score -1; inactive.
For MTURN, the values are viability hit class no change; caspase hit class no change; viability robust z-score 0.34; caspase robust z-score -0.04; inactive.
After knock-down of CACNA2D4 the results were viability hit class no change; caspase hit class no change; viability robust z-score 0.29; caspase robust z-score -0.55; inactive.
For HLA-DPB1, the entry reads viability hit class no change; caspase hit class no change; viability robust z-score -0.32; caspase robust z-score -0.32; inactive.
NSMCE3 showed viability hit class no change; caspase hit class no change; viability robust z-score -1.06; caspase robust z-score 1.87; inactive.
With knock-down of BMF, the screen gave viability hit class no change; caspase hit class no change; viability robust z-score 0.25; caspase robust z-score -0.15; inactive.
UBE2D1 showed viability hit class no change; caspase hit class no change; viability robust z-score 0.14; caspase robust z-score -0.99; inactive.
After knock-down of TGIF2LY, the record shows viability hit class no change; caspase hit class no change; viability robust z-score -0.19; caspase robust z-score 1.66; inactive.
FIG4 scored viability hit class no change; caspase hit class no change; viability robust z-score -0.8; caspase robust z-score -0.56; inactive.
Silencing of INHBA gave: viability hit class no change; caspase hit class no change; viability robust z-score 0.68; caspase robust z-score -1.19; inactive.
RAB37 scored viability hit class no change; caspase hit class no change; viability robust z-score 0.31; caspase robust z-score 0.22; inactive.
After knock-down of ADAD1, the record shows viability hit class no change; caspase hit class no change; viability robust z-score 0.1; caspase robust z-score -0.92; inactive.
